This note sets out measurements from patent publication US20250066509A1.

No constants are given. Whether binding was seen depends on the method and setting. Binding calls can cover weak binding; strength is not graded here.

Test [1] has as its target human βKlotho extracellular segment protein (human). Nature of the test: Gator BLI; antibody captured on Protein A probe, human βKlotho ECD in solution.
The target is the same in test [2]. Nature of the test: Gator BLI.

B1: CB-8-23 (antibody, human IgG1, V domains shown)
VH: EVQLVQSGAEVKKPGASVKVSCKASGYTFTSGGISWVRQAPGQGLEWMGWISAYNGRTNYAQKLQGRVTMTTDTSTSTAYMELRSLRSDDTAVYYCATLYGSGSLYYWGQGTLVTVSS
VL: DIVMTQSPSSLSAPVGDRVTITCQASQDIRNYINWFQQKPGKAPKLLIYAASFLQSGVPSRFSGSGSGTDFTLTISSLQPEDFATYYCQQSYSTPQWTFGQGTKVEIK
As for B1, the binding result in test [1] and in test [2] was “binds” each time.
